Data published in patent US9572855B2, “Combination anti-estrogen receptor cancer therapy using MUC1 peptides and chemotherapeutics” (DANA-FARBER CANCER INSTITUTE, INC., priority 2013, dated 2017).
Not every detail of the peptide structures is certain; ends, links or a residue may be inferred. Non-standard residues stand in square brackets, D forms with d. Residues, ends and D or L forms follow the SMILES beside them.

Assays:
Format in all cases: cell-based, human
BT-474/CshRNA cells [1] = test: Cell growth (viable cell number); Chou-Talalay drug combination
MCF-7/MUC1-C cells [2] = test: as above; conditions: 5 μM GO-203 each day (FIG. 5E)
Description: Lysates were immunoblotted with the indicated antibodies. […] Lysates were immunoblotted with the indicated antibodies.
(FIG. 6A) MCF-7/MUC1-C cells were infected with lentiviruses expressing the control shRNA (CshRNA) or the MUC1shRNA. Lysates from wild-type (WT) MCF-7 cells, MCF-7/MUC1-C/CshRNA and MCF-7/MUC1-C/MUC1shRNA cells were immunoblotted with the indicated antibodies. […] The results (mean±SD of three replicates) are expressed as viable cell number. […] The multiple effect-level isobologram analyses are shown for the ED50 (X), ED75 (+) and ED90 (⊙) values.

BT-474/CshRNA cells [3] = test: Colony formation assay; conditions: 5 μM GO-203 each day for 7 days (FIG. 5C)
Method: (§1) FIGS. 5A-G. Tamoxifen-resistant cells are sensitive to MUC1-C inhibition. […] Lysates were immunoblotted with the indicated antibodies. (FIG. 5B) BT-474/CshRNA cells were left untreated (diamonds) or treated with 5 μM GO-203 (squares) each day for the indicated days. […] Lysates were immunoblotted with the indicated antibodies. (FIG. 5E) MCF-7/MUC1-C cells were left untreated (diamonds) or treated with 5 μM GO-203 (squares) each day for the indicated days. […] Soluble chromatin was precipitated with anti-ERα (left), anti-CBP (right) or a control IgG. The precipitates were analyzed for Rab31 promoter sequences.
(§2) Colony formation assays. Cells were seeded in 6-well plates for 24 h and then left untreated or treated with inhibitor. After 7-14 d, the cells were washed and stained with 0.5% crystal violet in 25% methanol. Colonies >30 cells were counted in triplicate wells.

MCF-7/MUC1-C cells [4] = test: Colony formation assay; conditions: 5 μM GO-203 each day for 7 days (FIG. 5F)
Method: (FIG. 2B) Control MCF-7/vector (diamonds) and MCF-7/MUC1-C (triangles) cells were left untreated.
as §1, §2

Rab31 promoter = test: ChIP / re-ChIP of Rab31 promoter in MCF-7/MUC1-C cells
p-HER2 and p-AKT = test: Immunoblot analysis of BT-474 cell lysates; conditions: 5 μM GO-203 each day for 2 days (FIG. 5A)
ERα, Rab31, p-AKT = test: Immunoblot analysis of MCF-7/MUC1-C cell lysates; conditions: 5 μM GO-203 each day for 2 days (FIG. 5D)

## N=C(N)NCCC[C@@H](N)C(=O)N[C@H](CCCNC(=N)N)C(=O)N[C@H](CCCNC(=N)N)C(=O)N[C@H](CCCNC(=N)N)C(=O)N[C@H](CCCNC(=N)N)C(=O)N[C@H](CCCNC(=N)N)C(=O)N[C@H](CCCNC(=N)N)C(=O)N[C@H](CCCNC(=N)N)C(=O)N[C@H](CCCNC(=N)N)C(=O)N[C@H](CS)C(=O)N[C@H](CCC(N)=O)C(=O)N[C@H](CS)C(=O)N[C@H](CCCNC(=N)N)C(=O)N[C@H](CCCNC(=N)N)C(=O)N[C@H](CCCCN)C(=O)N[C@H](CC(N)=O)C(=O)O [GO-203, [R]9-CQCRRKN] (H-[dR][dR][dR][dR][dR][dR][dR][dR][dR][dC][dQ][dC][dR][dR][dK][dN]-OH)
BT-474/CshRNA cells [1]; 5 μM GO-203 each day (FIG. 5B)
  growth (viable cell number): inhibition of growth
BT-474/CshRNA cells [1]; used for BT-474/CshRNA cell growth combination study, read-out: half-maximal inhibitory concentration
  IC50: 3.9 µM
MCF-7/MUC1-C cells [2]
  growth (viable cell number): inhibited
BT-474/CshRNA cells [3]
  clonogenic survival (colony number): loss of clonogenic survival
MCF-7/MUC1-C cells [4]
  colony formation: inhibited
Rab31 promoter; 5 μM GO-203 each day for 2 days (FIG. 5G, left)
  recruitment of ERα to the Rab31 promoter: decreased
Rab31 promoter; 5 μM GO-203 each day for 2 days (FIG. 5G, right)
  recruitment of CBP to the Rab31 promoter: decreased
p-HER2 and p-AKT
  p-AKT level: marked downregulation
  p-HER2 level: marked downregulation
ERα, Rab31, p-AKT
  AKT activation: inhibited
